Assay results: paper PMC10362501
These are yes or no findings as the source states them, for the method shown. In cells and extracts the contact can be indirect. Some entries that bind do so weakly or less than the wild type. Where a sequence is shown, tags or fusion partners need not be part of it.

The chains behind the UniProt entries cited, without tags or fusion partners. Where a name states a change or a piece, a line headed by the entry shows the natural chain unless it says otherwise.
UniProt P08238: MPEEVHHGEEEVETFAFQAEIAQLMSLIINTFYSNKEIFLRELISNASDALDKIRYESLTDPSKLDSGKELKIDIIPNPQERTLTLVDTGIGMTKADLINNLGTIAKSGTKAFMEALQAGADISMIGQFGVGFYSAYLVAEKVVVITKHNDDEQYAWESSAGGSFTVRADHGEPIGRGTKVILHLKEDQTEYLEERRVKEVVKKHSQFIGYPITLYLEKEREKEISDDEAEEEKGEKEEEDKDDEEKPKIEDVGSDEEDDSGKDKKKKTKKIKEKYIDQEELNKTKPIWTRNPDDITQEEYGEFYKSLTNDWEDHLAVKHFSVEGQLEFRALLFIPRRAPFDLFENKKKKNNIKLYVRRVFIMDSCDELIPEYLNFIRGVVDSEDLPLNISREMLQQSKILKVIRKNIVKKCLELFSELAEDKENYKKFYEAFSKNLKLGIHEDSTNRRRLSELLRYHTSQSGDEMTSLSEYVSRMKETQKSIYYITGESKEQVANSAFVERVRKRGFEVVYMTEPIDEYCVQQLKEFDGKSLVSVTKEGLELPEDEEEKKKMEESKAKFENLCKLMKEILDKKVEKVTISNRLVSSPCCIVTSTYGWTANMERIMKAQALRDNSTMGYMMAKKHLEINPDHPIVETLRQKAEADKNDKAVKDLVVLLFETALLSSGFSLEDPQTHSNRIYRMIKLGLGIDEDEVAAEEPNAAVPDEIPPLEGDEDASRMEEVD
UniProt P05556: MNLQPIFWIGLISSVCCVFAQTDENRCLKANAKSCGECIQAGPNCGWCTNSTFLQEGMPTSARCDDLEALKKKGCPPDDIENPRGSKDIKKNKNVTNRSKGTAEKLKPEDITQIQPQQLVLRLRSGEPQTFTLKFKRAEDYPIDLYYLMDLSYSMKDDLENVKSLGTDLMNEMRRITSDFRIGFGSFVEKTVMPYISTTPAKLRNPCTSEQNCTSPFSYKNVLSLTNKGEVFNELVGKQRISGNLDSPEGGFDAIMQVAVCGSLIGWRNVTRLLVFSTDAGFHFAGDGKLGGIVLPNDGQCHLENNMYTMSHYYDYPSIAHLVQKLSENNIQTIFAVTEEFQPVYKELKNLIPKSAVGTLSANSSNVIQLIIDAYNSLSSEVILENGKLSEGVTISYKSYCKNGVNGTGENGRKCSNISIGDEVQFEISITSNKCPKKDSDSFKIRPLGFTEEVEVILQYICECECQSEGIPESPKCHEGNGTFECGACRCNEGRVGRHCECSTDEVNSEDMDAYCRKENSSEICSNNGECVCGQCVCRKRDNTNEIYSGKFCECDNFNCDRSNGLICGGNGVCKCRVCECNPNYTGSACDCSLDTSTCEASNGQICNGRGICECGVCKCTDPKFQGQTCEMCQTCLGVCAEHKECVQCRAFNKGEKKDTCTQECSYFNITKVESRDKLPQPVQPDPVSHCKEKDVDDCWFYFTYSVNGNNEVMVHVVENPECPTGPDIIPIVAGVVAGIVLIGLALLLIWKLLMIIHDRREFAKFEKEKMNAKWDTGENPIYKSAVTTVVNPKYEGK
UniProt P49023: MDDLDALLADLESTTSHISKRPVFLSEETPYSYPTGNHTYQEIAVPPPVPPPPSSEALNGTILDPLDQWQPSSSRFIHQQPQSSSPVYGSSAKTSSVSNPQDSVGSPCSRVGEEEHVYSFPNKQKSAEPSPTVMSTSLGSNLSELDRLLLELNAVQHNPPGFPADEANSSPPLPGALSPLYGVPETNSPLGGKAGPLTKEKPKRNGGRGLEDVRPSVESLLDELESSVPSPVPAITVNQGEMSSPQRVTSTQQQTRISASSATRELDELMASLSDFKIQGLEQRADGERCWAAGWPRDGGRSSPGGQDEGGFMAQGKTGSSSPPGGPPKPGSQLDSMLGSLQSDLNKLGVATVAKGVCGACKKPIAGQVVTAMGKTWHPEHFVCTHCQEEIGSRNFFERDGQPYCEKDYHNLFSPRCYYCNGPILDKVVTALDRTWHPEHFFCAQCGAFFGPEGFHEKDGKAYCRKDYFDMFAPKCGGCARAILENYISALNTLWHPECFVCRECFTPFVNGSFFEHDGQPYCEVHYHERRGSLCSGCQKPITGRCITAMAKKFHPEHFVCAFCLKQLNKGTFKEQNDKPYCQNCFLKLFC
UniProt Q96AC1: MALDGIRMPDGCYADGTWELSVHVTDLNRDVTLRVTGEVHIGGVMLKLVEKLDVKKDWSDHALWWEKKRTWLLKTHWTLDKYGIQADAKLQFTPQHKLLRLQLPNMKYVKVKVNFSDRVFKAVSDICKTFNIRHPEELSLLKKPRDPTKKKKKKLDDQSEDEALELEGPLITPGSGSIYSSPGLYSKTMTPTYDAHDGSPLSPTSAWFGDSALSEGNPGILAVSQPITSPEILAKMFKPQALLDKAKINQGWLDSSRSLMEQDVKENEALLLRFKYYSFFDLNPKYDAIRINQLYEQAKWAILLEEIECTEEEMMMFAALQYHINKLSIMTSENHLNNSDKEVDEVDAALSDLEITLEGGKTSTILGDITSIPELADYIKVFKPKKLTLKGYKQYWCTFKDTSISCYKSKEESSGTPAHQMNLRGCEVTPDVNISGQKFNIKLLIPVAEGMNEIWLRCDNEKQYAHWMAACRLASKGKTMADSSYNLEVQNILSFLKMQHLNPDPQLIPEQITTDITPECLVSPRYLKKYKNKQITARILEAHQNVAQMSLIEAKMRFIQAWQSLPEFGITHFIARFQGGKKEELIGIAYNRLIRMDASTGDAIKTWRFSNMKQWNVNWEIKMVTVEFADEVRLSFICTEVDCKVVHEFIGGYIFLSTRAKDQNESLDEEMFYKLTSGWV
UniProt P13533: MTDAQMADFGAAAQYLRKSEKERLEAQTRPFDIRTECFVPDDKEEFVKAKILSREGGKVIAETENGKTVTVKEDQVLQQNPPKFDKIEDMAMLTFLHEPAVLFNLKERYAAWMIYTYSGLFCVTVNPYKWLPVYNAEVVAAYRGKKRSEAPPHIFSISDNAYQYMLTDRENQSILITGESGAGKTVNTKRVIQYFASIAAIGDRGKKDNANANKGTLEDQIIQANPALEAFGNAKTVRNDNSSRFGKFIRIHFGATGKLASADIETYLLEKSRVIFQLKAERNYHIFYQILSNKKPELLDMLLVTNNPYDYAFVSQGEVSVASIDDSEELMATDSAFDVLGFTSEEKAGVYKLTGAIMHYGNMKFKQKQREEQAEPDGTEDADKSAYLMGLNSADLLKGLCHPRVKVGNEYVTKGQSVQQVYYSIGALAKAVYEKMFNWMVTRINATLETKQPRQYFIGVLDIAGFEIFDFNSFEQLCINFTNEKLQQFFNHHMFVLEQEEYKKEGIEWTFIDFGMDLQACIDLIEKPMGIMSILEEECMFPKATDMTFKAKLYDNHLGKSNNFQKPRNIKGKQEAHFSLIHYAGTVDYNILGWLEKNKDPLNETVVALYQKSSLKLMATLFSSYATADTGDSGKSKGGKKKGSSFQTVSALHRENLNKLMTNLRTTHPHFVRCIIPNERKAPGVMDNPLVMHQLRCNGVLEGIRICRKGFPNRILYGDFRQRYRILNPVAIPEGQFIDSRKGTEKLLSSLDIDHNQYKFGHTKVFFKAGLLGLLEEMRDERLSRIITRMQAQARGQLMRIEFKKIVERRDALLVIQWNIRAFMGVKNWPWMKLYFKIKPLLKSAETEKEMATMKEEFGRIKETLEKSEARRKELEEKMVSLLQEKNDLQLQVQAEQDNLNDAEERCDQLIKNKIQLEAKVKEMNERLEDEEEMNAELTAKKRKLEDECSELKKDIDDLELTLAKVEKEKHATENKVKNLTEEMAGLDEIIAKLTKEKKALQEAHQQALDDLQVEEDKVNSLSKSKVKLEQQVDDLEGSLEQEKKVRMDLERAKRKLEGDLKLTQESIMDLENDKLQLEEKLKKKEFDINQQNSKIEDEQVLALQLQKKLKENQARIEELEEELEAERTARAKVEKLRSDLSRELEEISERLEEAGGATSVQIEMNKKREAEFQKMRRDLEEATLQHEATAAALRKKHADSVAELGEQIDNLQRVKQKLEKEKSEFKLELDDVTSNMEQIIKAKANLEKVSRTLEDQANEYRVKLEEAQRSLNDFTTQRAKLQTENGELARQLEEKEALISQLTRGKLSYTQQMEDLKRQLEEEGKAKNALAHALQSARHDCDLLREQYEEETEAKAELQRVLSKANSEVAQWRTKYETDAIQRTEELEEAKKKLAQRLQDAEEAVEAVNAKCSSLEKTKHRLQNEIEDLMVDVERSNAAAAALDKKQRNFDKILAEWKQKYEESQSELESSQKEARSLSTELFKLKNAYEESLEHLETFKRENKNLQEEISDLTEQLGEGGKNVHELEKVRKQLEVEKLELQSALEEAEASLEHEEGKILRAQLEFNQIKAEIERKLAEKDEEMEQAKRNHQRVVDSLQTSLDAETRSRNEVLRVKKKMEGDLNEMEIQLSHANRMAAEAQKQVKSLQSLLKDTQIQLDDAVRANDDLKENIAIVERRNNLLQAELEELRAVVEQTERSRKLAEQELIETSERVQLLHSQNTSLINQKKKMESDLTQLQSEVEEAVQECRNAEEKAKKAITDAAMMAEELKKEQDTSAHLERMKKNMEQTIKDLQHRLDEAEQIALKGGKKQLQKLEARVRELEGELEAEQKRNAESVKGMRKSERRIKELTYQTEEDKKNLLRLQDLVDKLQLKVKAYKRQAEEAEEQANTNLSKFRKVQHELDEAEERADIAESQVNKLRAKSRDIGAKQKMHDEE

Molecular target: T1, UNC45B-FLAG (human) (UniProt Q8IWX7)
T1 sequence: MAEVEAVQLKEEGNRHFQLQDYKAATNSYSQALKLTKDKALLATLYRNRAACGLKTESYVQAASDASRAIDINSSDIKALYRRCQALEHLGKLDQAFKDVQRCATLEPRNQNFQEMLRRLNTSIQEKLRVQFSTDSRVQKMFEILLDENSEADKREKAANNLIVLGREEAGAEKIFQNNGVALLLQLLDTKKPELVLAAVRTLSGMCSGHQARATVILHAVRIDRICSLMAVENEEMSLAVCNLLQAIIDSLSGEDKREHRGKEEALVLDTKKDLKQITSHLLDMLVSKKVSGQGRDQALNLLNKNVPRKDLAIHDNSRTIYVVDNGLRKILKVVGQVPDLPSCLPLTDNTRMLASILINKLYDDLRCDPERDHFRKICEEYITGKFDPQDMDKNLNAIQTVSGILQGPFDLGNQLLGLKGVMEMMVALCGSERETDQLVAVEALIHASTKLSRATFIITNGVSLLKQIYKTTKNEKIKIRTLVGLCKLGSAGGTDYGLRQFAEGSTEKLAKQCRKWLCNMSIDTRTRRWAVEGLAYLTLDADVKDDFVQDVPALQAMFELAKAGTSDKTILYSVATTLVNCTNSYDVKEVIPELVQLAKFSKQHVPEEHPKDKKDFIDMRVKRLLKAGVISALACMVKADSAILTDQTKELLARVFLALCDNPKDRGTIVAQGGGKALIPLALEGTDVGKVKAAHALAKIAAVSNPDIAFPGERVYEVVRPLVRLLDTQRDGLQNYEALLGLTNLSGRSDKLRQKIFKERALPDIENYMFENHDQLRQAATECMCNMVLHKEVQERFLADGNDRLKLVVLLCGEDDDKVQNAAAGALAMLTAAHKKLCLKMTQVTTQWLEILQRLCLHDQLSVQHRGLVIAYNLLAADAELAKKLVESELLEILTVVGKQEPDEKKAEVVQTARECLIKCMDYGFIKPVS
Assay: co-IP; UNC45B-FLAG pulled down with anti-FLAG beads from lysates of WT^UNC45B-OE-CMs, WT-CMs as negative control; eluates analysed by SDS-PAGE and western blot

| Substance | binding |
| --- | --- |
| HSP90AB1 (from UniProt P08238 1-724) | binds |
| ITGB1 (from UniProt P05556 21-798) (receptor) | no binding |
| paxillin (from UniProt P49023 1-591) | no binding |

Now from value to substance:

| binding | Substance |
| --- | --- |
| binds | HSP90AA1 (from UniProt P07900 1-732) |
| binds | KINDLIN2 (from UniProt Q96AC1 1-680) |
| binds | muscle myosin MYH6 (from UniProt P13533 1-1939) |
